A short description of this assay: qHTS Assay for Lipid Storage Modulators in Drosophila S3 Cells.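 As to cell number change: cells counted by Cell Tracker Red CMTPX staining in the red channel.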 The note with it: BODIPY lipid droplet fluorescence, 18-24 h; for cell number change: measured here: cell count max response, cells fed with added oleic acid. The essentials: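 Laser-scanning cytometry quantifies lipid droplet accumulation (500–530 nm total intensity; droplet/cell object ratio) in oleic acid-fed (400 uM added) Drosophila S3 cells treated with a concentration series. 20 uM Triacsin C defined 100% inhibition.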
A general note: In qHTS, concentration-response curves come from the screen itself.

The mark [1] stands for this setting: measured here: lipid fluorescence (Fed channel) AC50, cells fed with added oleic acid.
Where [2] appears, read: measured here: cell number channel AC50, cells fed with added oleic acid.

Each structure is given as a SMILES string. The list shows a part of the results. Shown are side measurements of this screen, not its main read-out; they come without a call. The list favours compounds with an active or inconclusive main result. Potencies come from curve fits of mixed quality, noted in brackets.

As a reminder, the AC50 is the concentration at which the activity in the assay is half-maximal. As for `C=CCn1c(Oc2ccccc2F)nc2c1c(=O)n(C)c(=O)n2C`, the cell number change is -8.4%. Moreover, the AC50 under setting [1] was 0.731 µM [falling, full curve].
As to `COc1ccc(NC(=O)CN2C(=O)CSC(C)C2=O)c(OC)c1` (stereo not given), the cell number change is 9.05%. Moreover, the AC50 under setting [1] is 0.82 µM [rising, single point].
`CCOC(=O)c1cnc2c(C(=O)OC)cccc2c1NCc1cccnc1`: the cell number change came to 2.68%. Besides, the AC50 under setting [2] is 1.84 µM [falling, partial curve]. Besides, the AC50 under setting [1] is 1.84 µM [falling, partial curve].
Take `Cn1c(CNC(=O)c2ccccc2F)nnc1SCC(=O)N1CCN(c2ccccc2)CC1`: the cell number change was -26.7%. Besides, under setting [1], the AC50 is 29.1 µM [falling, single point].
`CC(=O)N1CCCc2cc(S(=O)(=O)N(C)Cc3ccccc3)ccc21`: the AC50 runs as follows: under setting [2], 1.64 µM [rising, partial curve]; under setting [1], 1.84 µM [rising, partial curve].
For `COc1ccccc1CN(C(=O)CCl)C(C(=O)NC1CCCCC1)c1ccncc1` (stereo not given), the cell number change is -25.6%. For the same compound, the AC50 under setting [1] is 0.58 µM [falling, single point].
Regarding `O=C(CCN1C(=O)COc2ccccc21)N1CCN(c2ccccn2)CC1`, the cell number change stood at 144%. The AC50 under setting [2] was 29.1 µM [rising, single point]. For the same compound, the AC50 under setting [1] was 0.58 µM [rising, single point].
With `COc1ccc(N2CCN(C(=O)NC(=O)c3ccccc3)CC2)cc1`, the cell number change came to 32.1%. Moreover, under setting [2], the AC50 is 16.4 µM [rising, single point]. Further, the AC50 under setting [1] was 23.1 µM [rising, single point].
Consider `CC(C)OC(=O)c1ccc(NC(=O)c2ccccc2)cc1`, for which the cell number change was 26.8%.
As for `CN1CCC(OC(=O)c2ccccc2Cl)CC1`, the cell number change is 2.69%. Under setting [1], the AC50 was 2.06 µM [falling, partial curve].
Consider `Cn1c(/N=C/c2cccs2)nc2ccccc21`, for which the cell number change is -11.4%. Further, the AC50 under setting [1] was 0.116 µM [falling, full curve, poor fit].
With `Cc1ccc(OCCC(=O)Nc2ccc3c(c2)OCO3)cc1`, the cell number change amounted to 11%. Further, the AC50 under setting [2] is 0.146 µM [falling, full curve, poor fit]. The AC50 under setting [1] was 0.146 µM [falling, full curve, poor fit].
On to `CS(=O)(=O)c1ccc(S(=O)CC(=O)OCc2ccccc2)c([N+](=O)[O-])c1` (stereo not given), for which, under setting [1], the AC50 was 29.1 µM [falling, single point].
In the case of `COc1cc([C@@H]2CC=C(C(=O)O)[C@H](c3ccccc3)N2S(=O)(=O)c2ccc(C)cc2)cc(OC)c1OC`, the cell number change was -1.85%. For the same compound, the AC50 under setting [1] is 0.00517 µM [rising, full curve, poor fit].
Take `Cc1ccc(N(C(=O)CNC(=O)c2ccco2)C(C(=O)NC2CCCCC2)c2ccncc2)c(C)c1` (stereo not given): the cell number change is -15.4%.
Turning to `COc1cc(C)cc(OC)c1OCC(=O)Nc1cc(C)on1`, the cell number change is -14.7%. For the same compound, the AC50 under setting [1] is 11.6 µM [falling, partial curve].
Consider `Cc1c(C(=O)OCC(=O)Nc2ccc(C(=O)N(C)C)cc2)oc2ccccc12`, for which the cell number change stood at 8.84%. For the same compound, the AC50 under setting [1] is 1.12 µM [rising, full curve, poor fit].
Take `COc1ccc(C2CC(C(F)(F)F)n3nc(CO)c(Cl)c3N2)cc1OC` (stereo not given): the cell number change is -4.65%.
As for `CCC1CCCCN1C(=O)c1ccc(OC2CCN(C(=O)COC)CC2)cc1` (stereo not given), the cell number change came to 36.9%. In addition, the AC50 under setting [2] is 0.461 µM [rising, partial curve]. Also, the AC50 under setting [1] is 0.517 µM [rising, full curve, poor fit].
Take `Cc1ccc(OCC(=O)Nc2ccccc2C(=O)NC2CC2)cc1C`: the cell number change was -6.79%.
For the compound `N#Cc1c2ccc(OCC(N)=O)cc2n2ccccc12`, the cell number change worked out at 25.7%. The concentration at half-maximal activity (AC50) under setting [1] is 0.184 µM [rising, full curve, poor fit].
With `Oc1cc(Cc2ccccc2)cnc1CN1CCOCC1`, the cell number change is 12.4%. Also, the AC50 under setting [2] is 6.51 µM [falling, single point]. Further, the AC50 under setting [1] is 0.146 µM [falling, full curve, poor fit].
As for `COc1ccc(C(CC(=O)N2CCN(c3ccccc3)CC2)c2c(OC)cc(OC)c3c(-c4ccccc4)cc(=O)oc23)cc1` (stereo not given), the cell number change worked out at 25.7%.
On to `O=C(NNC(=S)Nc1ccccc1C(F)(F)F)c1cccnc1`, for which the cell number change is -16.2%. Besides, under setting [1], the AC50 is 35.5 µM [falling, single point].
`CSc1nsc(SC)c1NC(=O)OC1CCCCC1`: the cell number change was 6.44%.
Take `NC(=O)c1ccc(Oc2ccc3ccc(=O)oc3c2)c([N+](=O)[O-])c1`: the cell number change is 84.9%. Also, the AC50 under setting [2] was 20.6 µM [rising, partial curve]. For the same compound, the AC50 under setting [1] is 6.51 µM [rising, partial curve].
In the case of `CC[C@H]1c2[nH]c3ccccc3c2C[C@@H]2C(=O)N(c3ccc(F)cc3)C(=O)N21`, the cell number change came to 12.9%. In addition, the AC50 under setting [1] was 1.84 µM [rising, single point].
`CCN(CC(=O)Nc1ccc(NC(C)=O)cc1)C(=O)C1CC(=O)N(Cc2ccc(C)cc2)C1` (stereo not given): the cell number change was -3.96%. Moreover, under setting [1], the AC50 was 18.4 µM [rising, partial curve].
On to `O=C(O)c1cc(S(=O)(=O)N2CC=C(c3ccccc3)CC2)ccc1O`, for which the cell number change is -2.33%. Further, the AC50 under setting [1] is 2.91 µM [falling, single point].
`COc1ccc(Br)cc1-c1nc2c(c(=O)[nH]c(=O)n2Cc2ccccc2)n1C`: the cell number change amounted to 14.5%. Under setting [1], the AC50 is 11.6 µM [rising, partial curve, poor fit].
As to `COc1ccccc1C(=O)NCCC(=O)N(C)Cc1ccc(C)o1`, the cell number change was -13.3%.
In the case of `CCOC(=O)c1ccc(NC(=O)Cn2cnc3cc(C)c(C)cc32)cc1`, the cell number change is -33.9%. The AC50 under setting [2] was 7.31 µM [falling, partial curve]. In addition, under setting [1], the AC50 was 10.3 µM [falling, partial curve].
For the compound `O=C(C=C=Nc1ccccc1)C(=O)N=C=Cc1ccccc1`, the cell number change is -23%. Besides, the AC50 under setting [2] is 0.13 µM [falling, full curve, poor fit]. Further, the AC50 under setting [1] was 0.13 µM [falling, full curve].
In the case of `Cc1c(C(N)=O)c(-c2ccccc2)nn1-c1ccccc1`, the cell number change amounted to 2.07%. Also, the AC50 under setting [1] is 0.13 µM [falling, full curve, poor fit].
Turning to `CCOC(=O)C1C(=O)NC(c2ccccc2)=NC1c1ccc(OC)cc1` (stereo not given), the cell number change amounted to 31%. Also, under setting [2], the AC50 is 0.366 µM [rising, full curve, poor fit].
Regarding `Cc1ccc(S(=O)(=O)N2CCC(=O)N(C(CO)C(C)C)CC2)cc1` (stereo not given), the cell number change was found to be 17.6%. Under setting [2], the AC50 is 1.03 µM [rising, full curve]. Moreover, the AC50 under setting [1] was 0.82 µM [rising, full curve].
In the case of `CCC(c1nnnn1C(C)(C)C)N1CCN(C(=O)c2ccco2)CC1` (stereo not given), the cell number change stood at 3.75%.

The values are drawn from PubChem BioAssay AID2685 (National Center for Advancing Translational Sciences (NCATS), 2010).
